PubChem BioAssay AID504764 – Drosophila RNAi Screening Center, 2011
Aim: 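Genome-wide screen for regulators of Notch-driven gene expression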 (primary screen). Cell system: Drosophila Kc167 cells. Knock-down reagent: long dsRNA against Drosophila genes. Duration: about 5 days (4 days dsRNA, then 24 h after transfection). Challenge: transfection of constitutively active membrane-tethered Notch lacking the extracellular domain, read 24 h later. Measured: 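Firefly luciferase from an E(spl)m3 reporter with active Notch, plus control-promoter and uninduced reporter wells for normalisation; unnormalised counts, duplicate wells a and b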. Reading the numbers: induced reporter light, run 1, well a and induced reporter light, run 1, well b: higher = more light from the Notch target reporter with active Notch; control promoter light, run 1, well a and control promoter light, run 1, well b: higher = more light from the viral control promoter (cell number, transfection, viability); uninduced reporter light, run 1, well a: higher = more light from the Notch target reporter without active Notch. Hit rule: 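Hit if the duplicate-averaged log2 ratio of induced to control-promoter light gives a plate-wise z beyond ±2, or induced to uninduced beyond ±1.8; weak-control or discordant-duplicate wells dropped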. Meaning of the calls: active = modifier hit (raised or lowered Notch signal); inactive = not a hit.
The screen tested about 22,000 reagents; shown is an unselected part of those that have a named target and a result. Over the whole deposit, 403 (1.9%) got an active call. 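Unnormalised raw counts per well; ratio z-scores behind the hit calls and whether each hit raises or lowers signal are not deposited.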 A plus sign joins genes that one reagent is predicted to hit. Reagent sequences are not shown. The record does not give: the amount of reagent.

Gene | dsRNA | induced reporter light, run 1, well a | induced reporter light, run 1, well b | control promoter light, run 1, well a | control promoter light, run 1, well b | uninduced reporter light, run 1, well a | call
CG1631 | DRSC20535 | 78585 | 68165 | 97680 | 1.03e5 | 9715 | inactive
CG5726 | DRSC06946 | 54805 | 48450 | 90645 | 1.18e5 | 6020 | inactive
Aatf | DRSC02131 | 1.27e5 | 92155 | 1.32e5 | 1.14e5 | 7115 | inactive
Cpr50Cb | DRSC06975 | 1.08e5 | 1.02e5 | 1.30e5 | 1.35e5 | 11430 | inactive
Ku80 | DRSC02699 | 83035 | 1.02e5 | 95385 | 89155 | 7182 | inactive
l(2)41Ab | DRSC21007 | 2.41e5 | 2.16e5 | 2.10e5 | 2.88e5 | 16790 | active
Nrt | DRSC11237 | 1.51e5 | 1.67e5 | 86160 | 1.02e5 | 11840 | inactive
CG32833 | DRSC04596 | 1.60e5 | 1.75e5 | 1.18e5 | 1.57e5 | 10720 | inactive
fbp | DRSC02077 | 1.95e5 | 1.88e5 | 1.50e5 | 1.71e5 | 15670 | inactive
tHMG1 | DRSC16181 | 1.84e5 | 1.65e5 | 2.03e5 | 1.77e5 | 12455 | inactive
blanks | DRSC09757 | 2.04e5 | 2.07e5 | 2.58e5 | 2.38e5 | 11840 | inactive
Tbcb | DRSC06067 | 83065 | 77080 | 1.53e5 | 1.74e5 | 5760 | inactive
Obp50a | DRSC22152 | – | – | – | – | – | inactive
gom | DRSC04690 | 28535 | 27855 | 25420 | 22795 | 1945 | inactive
YL-1 | DRSC02765 | 1.14e5 | 1.40e5 | 85450 | 1.25e5 | 15945 | inactive
Spn75F | DRSC09589 | 2.84e5 | 2.77e5 | 3.71e5 | 2.89e5 | 22450 | inactive
CG18449 | DRSC06754 | 1.75e5 | 1.64e5 | 2.57e5 | 2.19e5 | 17840 | inactive
Pex10 | DRSC08599 | 1.08e5 | 1.06e5 | 1.84e5 | 2.04e5 | 8175 | inactive
fd3F + CG42499 (retired record) | DRSC18160 | 1.78e5 | 1.83e5 | 3.97e5 | 3.60e5 | 12865 | inactive
fd3F + CG42499 (retired record) | DRSC18161 | 1.54e5 | 1.63e5 | 3.06e5 | 3.26e5 | 13800 | inactive
Srx | DRSC20005 | 59920 | 71105 | 73840 | 61890 | 9740 | inactive
fz | DRSC11348 | 2.09e5 | 1.84e5 | 2.83e5 | 2.52e5 | 8895 | inactive

Hits (from the list above):
Gene | dsRNA | induced reporter light, run 1, well a | induced reporter light, run 1, well b | control promoter light, run 1, well a | control promoter light, run 1, well b | uninduced reporter light, run 1, well a | call
l(2)41Ab | DRSC21007 | 2.41e5 | 2.16e5 | 2.10e5 | 2.88e5 | 16790 | active

The listing continues:
Gene | dsRNA | induced reporter light, run 1, well a | induced reporter light, run 1, well b | control promoter light, run 1, well a | control promoter light, run 1, well b | uninduced reporter light, run 1, well a | call
Hsp60B | DRSC00542 | 2.14e5 | 2.43e5 | 2.79e5 | 3.17e5 | 18525 | inactive
ric8b + ric8a | DRSC18104 | 1.73e5 | 1.22e5 | 1.71e5 | 1.96e5 | 8278 | inactive
CG13786 | DRSC02289 | 1.26e5 | 85310 | 1.21e5 | 1.04e5 | 6630 | inactive
ND-B22 | DRSC03193 | 66345 | 76145 | 77495 | 1.07e5 | 5570 | inactive
CG1927 | DRSC08146 | 73955 | 69980 | 95980 | 1.00e5 | 4895 | inactive
Rrp47 | DRSC20124 | 96210 | 84390 | 1.00e5 | 84210 | 14560 | inactive
CG3294 | DRSC00590 | 1.61e5 | 1.70e5 | 1.67e5 | 1.89e5 | 15390 | inactive
galla-1 | DRSC05987 | 1.51e5 | 1.62e5 | 2.79e5 | 2.71e5 | 7370 | inactive
Bfc | DRSC08623 | 99280 | 1.11e5 | 1.82e5 | 1.52e5 | 6715 | inactive
RpS12 | DRSC11270 | 43895 | 37930 | 39905 | 24650 | 5515 | inactive
del | DRSC03170 | 1.74e5 | 1.89e5 | 1.72e5 | 2.03e5 | 17500 | inactive
Act42A | DRSC04835 | 2.25e5 | 2.20e5 | 2.14e5 | 2.16e5 | 16325 | inactive
